Data as given in publication PMC5227552.
No constants are given. Whether binding was seen depends on the method and setting. Binding seen in cells or lysates may run through a third protein.

Amino acid sequences for entries named in this document (tags omitted). Residues count along the entry.
UniProt P42081, residues 24-329: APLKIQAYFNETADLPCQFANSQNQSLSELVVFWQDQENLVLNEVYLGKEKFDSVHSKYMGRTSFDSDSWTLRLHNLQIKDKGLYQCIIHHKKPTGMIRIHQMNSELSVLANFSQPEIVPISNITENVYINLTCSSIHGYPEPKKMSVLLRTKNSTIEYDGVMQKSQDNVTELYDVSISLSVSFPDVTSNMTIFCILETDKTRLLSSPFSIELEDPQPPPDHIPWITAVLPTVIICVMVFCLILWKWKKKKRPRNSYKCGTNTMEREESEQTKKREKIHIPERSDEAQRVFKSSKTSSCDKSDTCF
UniProt Q99IB8, residues 384-750: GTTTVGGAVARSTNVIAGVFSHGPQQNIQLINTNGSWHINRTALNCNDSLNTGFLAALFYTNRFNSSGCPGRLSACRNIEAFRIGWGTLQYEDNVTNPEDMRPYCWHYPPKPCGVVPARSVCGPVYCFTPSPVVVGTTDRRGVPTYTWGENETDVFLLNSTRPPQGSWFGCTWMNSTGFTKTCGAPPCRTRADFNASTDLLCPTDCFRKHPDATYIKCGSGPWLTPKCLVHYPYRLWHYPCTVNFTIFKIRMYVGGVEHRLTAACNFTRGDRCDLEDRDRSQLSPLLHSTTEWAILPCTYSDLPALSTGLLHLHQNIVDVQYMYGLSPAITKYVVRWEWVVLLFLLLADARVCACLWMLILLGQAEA

Biological target: Full-length B7.2 overexpressed in 293T cells (UniProt P42081)
Assay: co-IP; 293T cells overexpressing full-length B7.2, 24 h later incubated 24 h with SB HCVpp or JFH1 HCVpp; lysates immunoprecipitated with anti-B7.2, immunoblot

E2 of HCV JFH1 strain carried on HCVpp (JFH1 HCVpp) (from UniProt Q99IB8 384-750)
binding: no binding
